# The other results are listed elsewhere or left out.
# System: T1, CTL2-GFP (C. trachomatis L2/434/Bu, GFP-expressing)
# T1 construct: L2/434/Bu, GFP-expressing
# Design: species or system HeLa; Intracellular C. trachomatis growth in HeLa cells, bulk GFP fluorescence relative to DMSO
# Settings: bulk GFP, single well; 28.5 h, 10 µM; inhibitor
row,Compound,% of control remaining [%]
1,O=S(=O)(Nc1ccccn1)c1cccs1 [CBK043773],104.044
2,Cc1cccc(CN2CCC(N(C)Cc3nnc(C4CC4)n3C)C2)c1 (stereo not drawn) [CBK305165],131.886
3,O=C(CC1C(=O)NCCN1C(=O)Nc1ccc(OCc2ccccc2)cc1)Nc1ccc(F)cc1 (stereo not drawn) [CBK086203],66.1066
4,Fc1ccc(-c2cncc(NCCc3cccnc3)n2)cc1Cl [CBK065745],127.049
5,CC(C)C(=O)N(C)c1nnc(-c2cccnc2)s1 [CBK007554],138.307
6,Cc1nc(C2CCN(C(=O)c3cccnc3)CC2)c2sccn12 [CBK282233],95.4754
7,CN(C)c1nc2c(c(-c3cncc(N)c3)n1)CCCC2 [CBK307503],131.715
8,CC(C)(C)c1ccc(S(=O)(=O)N2CCN(CCC(=O)O)CC2)cc1 [CBK297089],138.21
9,COc1ccc(-c2cc3nnc(C)nc3s2)cc1 [CBK025638],113.665
10,Cc1cc(N)n(CC(=O)NCCCn2ccnc2C(C)C)n1 [CBK306632],78.4051
11,O=C(Nc1ccc(F)cc1)c1ccsc1NS(=O)(=O)Cc1ccccc1[N+](=O)[O-] [CBK042313],116.298
12,O=c1oc2cc(Oc3ccc([N+](=O)[O-])cc3C(F)(F)F)c(Cl)cc2c2c1CCCC2 [CBK264914],100
13,Cc1ccc(C2C(C(=O)c3cccs3)=C(O)C(=O)N2CCN2CCOCC2)o1 (stereo not drawn) [CBK264559],100
14,CCn1c2ccccc2c2ccc(/C=N/NC(=O)c3ccc(O)cc3O)cc21 [CBK262948],93.432
15,CC12CCC(=O)N1C(C(=O)NCCNc1ccc(S(C)(=O)=O)cc1[N+](=O)[O-])CS2 (stereo not drawn) [CBK296661],111.517
16,CC(C)(C)c1cc(C[C@H]2CNCC[C@H]2CC(=O)N2CCN(c3ccccn3)CC2)no1 [CBK288799],136.65
17,O=C1c2ccccc2NC(c2ccc(O)cc2)N1/N=C/c1ccc(O)cc1 (stereo not drawn) [CBK262985],109.57
18,Cc1cccc(NC(=O)NC(=O)C2CCN(CCOc3ccccc3)CC2)c1 [CBK034868],104.793
19,CCCN1C[C@H](NC(=O)C2CC2)[C@@H](c2ccc(OC)cc2)C1 [CBK282518],116.172
20,c1csc(CN2CCC[C@H]2c2nc(-c3ccc(-n4ccnc4)nc3)no2)c1 [CBK288895],96.1986
21,O=C1c2ccccc2CN1c1ccc(Cl)cc1Cl [CBK109908],71.9072
22,O=C(N[C@@H]1CCOC[C@H]1Oc1ccc(CO)cc1)c1ccc(F)cc1 [CBK306571],114.02
23,CN(C)CCCN1C(=O)C(O)=C(C(=O)c2ccccc2)C1c1ccccn1 (stereo not drawn) [CBK287778],90.2792
24,COc1cc([N+](=O)[O-])cc2cc(C(=O)NNC(=O)c3ccccc3Cl)c(=O)oc12 [CBK267011],144.184
25,O=c1[nH]c2ccccc2n1C1CCN(S(=O)(=O)c2cccs2)CC1 [CBK149689],90.7219
26,O=C(C1CCC1)N1CCC(c2nc(Cc3cccs3)no2)C1 (stereo not drawn) [CBK283028],136.454

row,Compound,% of control remaining [%]
1,O=C(O)c1cc2c(s1)CN(C1CCCCC1)C2 [CBK286885],118.236
2,O=C(c1cc(F)c(F)cc1F)N1CCC2(CCN(C(=O)C3COc4ccccc4O3)C2)C1 (stereo not drawn) [CBK131390],112.192
3,CO[C@@H]1CO[C@H]2[C@@H]1OC[C@@H]2NC(=O)Nc1ccc(C(C)=O)cc1 [CBK289462],123.431
4,Nc1nonc1-c1noc(-c2cccc(Cl)c2)n1 [CBK026691],160.967
5,O=C(/C=C/c1ccccc1)NC(=S)Nc1ccc2oc(-c3ccncc3)nc2c1 [CBK263687],102.043
6,Cc1ccc(-c2cc(C3CCN(C(=O)c4cnn(C)c4)C3)[nH]n2)cc1 (stereo not drawn) [CBK285266],127.509
7,CC1CCc2c(sc3ncnc(OCC(=O)N4CCOCC4)c23)C1 (stereo not drawn) [CBK306000],111.838
8,[O-][N+]1=C2CCc3c(no[n+]3[O-])C2(O)CC1N1CCOCC1 (stereo not drawn) [CBK261515],81.1338
9,CN(C)c1cccc(C(=O)Nc2cnc(-c3cccc(C(F)(F)F)c3)c(-c3cccnc3)n2)c1 [CBK036752],87.1275
10,O=C(CN1CCCN(c2nccs2)CC1)Nc1cc(Cl)ccc1Cl [CBK305921],124.351
11,COc1ccccc1C(NC(=O)N(C(C)C)C(C)C)c1nccn1C (stereo not drawn) [CBK283834],138.268
12,CCn1c(CN2CCC(c3noc(C)n3)CC2)nc2c(F)cccc21 [CBK304960],103.14
13,O=C(Nc1ccc(N2CCNCC2)nc1)c1ccccc1 [CBK028277T],130.327
14,Clc1ccc(CN2CCN(c3nccnc3OCc3cccnc3)CC2)cc1 [CBK083130T],91.7677
15,Cc1nnc2sc(-c3ccc(NC(=S)NC(=O)c4cc5ccccc5o4)cc3)nn12 [CBK266795],138.545
16,CSCCCNC(=O)N(Cc1cccnc1)Cc1ccc2c(c1)OCO2 [CBK159426],96.4522
17,CCCCN(C)S(=O)(=O)NCc1cn2ccccc2n1 [CBK306329],112.378
18,C=CCc1cccc(Cl)c1OCCN1CCNCC1 [CBK266071G],162.434
19,c1ccc([C@@H]2CN(Cc3ccccn3)C[C@H]2c2cc[nH]n2)cc1 [CBK285162],130.843
20,COc1ccc([C@H]2C3CCCCC3[C@@H]2NC(=O)C2CCCO2)cc1 (stereo partly drawn) [CBK282990],107.386
21,CCN(CC)c1ccc(NC(=O)COc2ccccc2)cc1 [CBK096048],178.066
22,Cc1cc(CN(C)Cc2c(C)nc3ccc(Cl)cn23)n[nH]1 [CBK281913],109.602
23,O=C(NCc1ccc2c(c1)OCO2)c1ccc(Oc2ccccc2)cc1 [CBK293982],70.0011
24,COc1cccc(CCC(=O)n2ccn(CCCOc3ccccc3)c2=O)c1 [CBK106565],102.167
25,O=C(Cc1csc2ccccc12)Nc1cnc(-c2ccc(F)cc2)c(-c2ccoc2)n1 [CBK037102],116.193
26,CC(C)CCNC(=O)c1cccc(-n2c(=S)[nH]c3cc(Cl)ccc3c2=O)c1 [CBK294444],123.823

# Looked up above.
# `O=c1oc2cc(Oc3ccc([N+](=O)[O-])cc3C(F)(F)F)c(Cl)cc2c2c1CCCC2` [CBK264914] – % of control remaining [%]: 100
# `CC(C)C(=O)N(C)c1nnc(-c2cccnc2)s1` [CBK007554] – % of control remaining [%]: 138.307
# `Cc1ccc(C2C(C(=O)c3cccs3)=C(O)C(=O)N2CCN2CCOCC2)o1` (stereo not drawn) [CBK264559] – % of control remaining [%]: 100
# `[O-][N+]1=C2CCc3c(no[n+]3[O-])C2(O)CC1N1CCOCC1` (stereo not drawn) [CBK261515] – % of control remaining [%]: 81.1338

# Remaining list, next part.

row,Compound,% of control remaining [%]
1,Cc1nn(C)c(C)c1NC(=O)COc1ccccc1C#N [CBK305850],104.749
2,COc1ccc(C(NC(=O)[C@H]2CCCN2C(=O)c2c(-c3ccccc3)noc2C)c2ccccc2C)cn1 (stereo partly drawn) [CBK075055],107.548
3,Cc1cc(C(C)(C)C)ccc1OCCNCCN [CBK265097G],128.747
4,C/C(CS(=O)(=O)c1ccccc1)=N/NC(N)=S [CBK026285],124.734
5,COc1ccc(Cn2nc(NC(=O)Nc3c(C)noc3C)c3ccccc32)cc1 [CBK048528],107.968
6,CCc1nc(CNC(=O)c2cc3cc(F)ccc3n2C)no1 [CBK281414],113.525
7,OCc1ccccc1-c1cncc(N2CCN(c3ccncc3)CC2)n1 [CBK065208],143.751
8,Cc1oc(-c2ccccc2)cc1C(=O)NCc1ccc(OC2CCNCC2)cc1 [CBK038915T],88.4325
9,CN(C)c1ccc(C=Nc2ccc(NC(=O)CCC(=O)O)cc2)cc1 [CBK296091],144.21
10,Clc1ccc(CN2CCC(NCCCn3cccn3)CC2)cc1 [CBK304004],128.52
11,CCCc1n[nH]c(-c2c(F)cccc2F)c1C(=O)OCC [CBK113546],96.7047
12,Cc1ccc(-c2nnc(COC(=O)c3c4c(nc5ccccc35)CCCC4)o2)cc1 [CBK269728],100.679
13,COc1cccc(CCC(=O)Nc2cnc(-c3cccc(C(F)(F)F)c3)c(-c3cccnc3)n2)c1 [CBK036835],116.003
14,CC(NS(=O)(=O)c1cccc2c(S(=O)(=O)NC(C)c3ccccc3)cccc12)c1ccccc1 (stereo not drawn) [CBK267717],138.182
15,Cc1ncccc1-c1cc2cccnc2n1CCCNC(=O)C1CC1 [CBK282687],107.493
16,CCOC(=O)c1sc2nc(N3CCOCC3)c3c(c2c1N)CCCC3 [CBK131870],83.3846
17,O=C(Nc1ccc2c(c1)OCCO2)c1cc(S(=O)(=O)N2CCCCC2)c(Cl)cc1Cl [CBK265790],187.865
18,COC(=O)c1ccccc1NC(=O)c1ccc(-n2cnnn2)cc1 [CBK058360],113.885
19,Cn1nc(CC(=O)Nc2ccc(OC(=O)c3ccccc3)cc2)c2ccccc2c1=O [CBK264057],125.232
20,CC1CCCCN1C(=O)CCn1c(-c2ccncc2)cc2cccnc21 (stereo not drawn) [CBK282689],120.763
21,CC(C)c1cc2cc3ccc(=O)oc3cc2o1 [CBK033944],100
22,CCN1CC2(CCCN(Cc3nnc(-c4cccnc4)o3)C2)CCC1=O (stereo not drawn) [CBK306881],147.99
23,Cc1nn(Cc2ccc(Cl)cc2)c(C)c1NC(=O)CCC(=O)O [CBK287051],129.403
24,c1ccc2cc(CCN3CCC(Oc4nccnc4OCCN4CCOCC4)CC3)ccc2c1 [CBK082942T],139.969
25,COc1cc([N+](=O)[O-])ccc1NC(=O)C1CC(Cl)=CCC1C(=O)O (stereo not drawn) [CBK264956],100
26,O=C(CNc1n[nH]c(=O)[nH]c1=O)N/N=C/c1ccc(C(=O)O)cc1 [CBK263529],100

# — paper PMC12040169 (PLOS Biology, 2025)
